Test results from the supplement of paper PMC9877034.
Where a name gives a salt, the structure may show the parent alone. Whole data set: some 1,000 compounds, median “cFRET/donor change relative to DMSO, normalised to beta-lapachone positive control (supercomplex I-IV assembly)” near 0.18, cut for the lowest 2% near -1. The list shows a part of the results.

Each compound was assayed on C2C12 (NDUFB8-AcGFP / COX8A-DsRed-Monomer FRET reporter) (assay: cFRET/donor change relative to DMSO, normalised to beta-lapachone positive control (supercomplex I-IV assembly) (fraction of beta-lapachone effect); higher = more respiratory supercomplex assembly). Conditions: 40 µM; 24 h.
Protocol: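 Cells were treated with 40 uM compound for 24 h and imaged on an IN Cell Analyzer 6000. Corrected FRET was divided by donor signal (cFRET/donor) and measured in two replicate experiments. The score is (mean cFRET/donor of compound - mean DMSO) / (mean beta-lapachone 40 uM - mean DMSO). Compounds flagged for prominent cell death, abnormal morphology or decreased cell number were excluded.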
Work on `O=C(O)c1cc(=O)cc(C(=O)O)[nH]1` [Chelidamic acid] yielded a cFRET/donor change of 0.556.
`Cc1nc(C#Cc2cccnc2)cs1` [MTEP hydrochloride] was tested, and the cFRET/donor change was 0.691.
`Nc1ccn([C@H]2CC[C@@H](CO)O2)c(=O)n1` [2',3'-dideoxycytidine] showed a cFRET/donor change of 0.352.
Compound `O=C(Nc1ccccc1C(=O)NC1CCCCNC1=O)c1cc2ccccc2s1` (stereo not given) has a cFRET/donor change of 0.384.
Work on `CN(C)CCOC(C)(c1ccccc1)c1ccccn1` (stereo not given) [Doxylamine succinate] yielded a cFRET/donor change of 0.558.
`COc1cccc(-c2cc(=O)c3ccccc3o2)c1N` was tested, and the cFRET/donor change was 0.0735.
Compound `CCCCCCCCCCCCCCC[C@H](O)[C@H](N)CO` (racemic) [DL-erythro-Dihydrosphingosine] has a cFRET/donor change of 0.48.
`O=C(CCc1ccc(O)cc1)c1c(O)cc(O)cc1O` [Phloretin] gave a cFRET/donor change of 0.232.
Compound `CCCCCCCCCCCCCCCCCCN(CCCCCCCCCCCCCCCCCC)CCCN(CCO)CCO` [Avridine] has a cFRET/donor change of 0.401.
With `CN1CCN(CCCN2c3ccccc3Sc3ccc(C(F)(F)F)cc32)CC1` [Trifluoperazine dihydrochloride] the cFRET/donor change was 0.794.
`C[N+](C)(C)CC(=O)O` [Betaine hydrochloride] gave a cFRET/donor change of -0.0834.
Work on `OCCN(CCO)c1nc(N2CCCCC2)c2nc(N(CCO)CCO)nc(N3CCCCC3)c2n1` [Dipyridamole] yielded a cFRET/donor change of -0.8.
Compound `CC[C@H](CO)Nc1nc(NCc2ccccc2)c2ncn(C(C)C)c2n1` [Roscovitine] has a cFRET/donor change of -0.0126.
`Nc1cc(Cl)c(NC2=NCCN2)c(Cl)c1` [p-Aminoclonidine hydrochloride] was tested, and the cFRET/donor change was -0.0499.
Compound `Nc1nc(Cl)nc2c1ncn2[C@@H]1O[C@H](CO)[C@@H](O)[C@H]1O` [2-Chloroadenosine] has a cFRET/donor change of 0.284.
With `NO` [Hydroxylamine hydrochloride] the cFRET/donor change was -0.0386.
`CS(=O)(=O)c1ccc(-n2nc(C(F)(F)F)cc2-c2ccc(F)cc2)cc1` was tested, and the cFRET/donor change was 0.187.
For `Cc1ccc(=O)n(-c2ccccc2)c1` [Pirfenidone], the cFRET/donor change was 0.0731.
Work on `CC(=O)/C=C1/C(=O)N(C)c2ccccc21` [Supercinnamaldehyde] yielded a cFRET/donor change of 0.0218.
Work on `CN(C)C(=O)[C@H](O)[C@H](Cc1ccccc1)NC(=O)c1cc2cc(Cl)ccc2[nH]1` yielded a cFRET/donor change of 0.332.
Work on `N#Cc1cc2nc(O)c(O)nc2cc1[N+](=O)[O-]` [CNQX disodium] yielded a cFRET/donor change of 0.332.
`N[C@@H](CS(=O)O)C(=O)O` [L-Cysteinesulfinic Acid] was tested, and the cFRET/donor change was 0.229.
`O=C(Nc1ccncc1)c1cc([N+](=O)[O-])ccc1Cl` was tested, and the cFRET/donor change was 0.286.
With `CCn1c(=O)[nH]c2cc(Cl)c(Cl)cc21` the cFRET/donor change was 0.309.
For `O=C(Nc1cc(C(F)(F)F)cc(C(F)(F)F)c1)Nc1c(Br)cc(Br)cc1-c1nn[nH]n1`, the cFRET/donor change was 1.37.
Compound `CC[C@@H]1C(=O)OC[C@@H]1Cc1cncn1C` [Pilocarpine nitrate] has a cFRET/donor change of 0.153.
With `CC[C@@H]1C(=O)OC[C@@H]1Cc1cncn1C` [(+)-Pilocarpine hydrochloride] the cFRET/donor change was 0.534.
For `CN1C(=O)CC[C@H]1c1cccnc1` [(-)-Cotinine], the cFRET/donor change was 0.0254.
Compound `COC1(C2=NCCN2)COc2ccccc2O1` (stereo not given) has a cFRET/donor change of -0.111.
In the case of `OC[C@H]1O[C@@H](n2cnc3c(N[C@H]4CCC[C@@H]4O)ncnc32)[C@H](O)[C@@H]1O`, the cFRET/donor change is reported as 0.476.
`Nc1cc(=O)[nH]c(N)n1` [2,4-Diamino-6-pyrimidinone] was tested, and the cFRET/donor change was 0.0643.
For `N[C@@H](Cc1c[nH]c2ccccc12)C(=O)O` [L-Tryptophan], the cFRET/donor change was -0.0634.
For `Nc1ncnc2c1nc(Br)n2C1OC2COP(=O)(O)O[C@@H]2C1O` (stereo not given in full) [8-Bromo-cAMP sodium], the cFRET/donor change was -0.131.
With `O=C(Nc1cccc(C(=O)Nc2ccc(S(=O)(=O)O)c3cc(S(=O)(=O)O)cc(S(=O)(=O)O)c23)c1)Nc1cccc(C(=O)Nc2ccc(S(=O)(=O)O)c3cc(S(=O)(=O)O)cc(S(=O)(=O)O)c23)c1` the cFRET/donor change was -0.0398.
With `S=C(S)N1CCCC1` [Ammonium pyrrolidinedithiocarbamate] the cFRET/donor change was 0.614.
In the case of `CN(c1ccccc1CNc1nc(Nc2ccc3c(c2)CC(=O)N3)ncc1C(F)(F)F)S(C)(=O)=O`, the cFRET/donor change is reported as 0.036.
For `NS(=O)(=O)c1cc2c(cc1Cl)NC(C1CC3C=CC1C3)NS2(=O)=O` (stereo not given) [Cyclothiazide], the cFRET/donor change was -0.0438.
`CSC(=N)NCCC[C@H](N)C(=O)O` [S-Methyl-L-thiocitrulline acetate] gave a cFRET/donor change of 0.18.
`c1ccc2c(CC3=NCCN3)cccc2c1` [Naphazoline hydrochloride] showed a cFRET/donor change of 0.488.
`CCN(CC)CC(=O)Nc1c(C)cccc1C` [Lidocaine hydrochloride] showed a cFRET/donor change of 0.237.
For `O=c1n(CCCN2CCN(c3cccc(Cl)c3)CC2)nc2ccccn12` [Trazodone hydrochloride], the cFRET/donor change was 0.586.
For `C=C[C@H]1CN2CC[C@H]1C[C@H]2[C@H](O)c1ccnc2ccc(OC)cc12` [Quinine sulfate], the cFRET/donor change was 0.41.
With `Oc1ccc(-c2nc(-c3ccc(F)cc3)c(-c3ccncc3)[nH]2)cc1` the cFRET/donor change was -0.171.
`OC1(c2ccc(Cl)cc2)CCN(Cc2c[nH]c3ccccc23)CC1` showed a cFRET/donor change of 0.296.
Compound `Nc1ncnc2c1ncn2[C@@H]1O[C@H](COP(=O)(O)OP(=O)(O)OP(=O)(O)OP(=O)(O)OC[C@@H]2O[C@H](n3cnc4c(N)ncnc43)C(O)[C@@H]2O)[C@H](O)C1O` (stereo not given in full) [P1,P4-Di(adenosine-5')tetraphosphate triammonium] has a cFRET/donor change of 0.0746.
In the case of `Nc1cc(N2CCCCC2)nc(N)[n+]1[O-]` [Minoxidil], the cFRET/donor change is reported as 0.185.
For `COc1ccc2cc([C@H](C)C(=O)O)ccc2c1` [(-)-Naproxen sodium], the cFRET/donor change was -0.154.
`CCCN(CCC)CCc1cccc2c1CC(=O)N2` [Ropinirole hydrochloride] gave a cFRET/donor change of 0.0704.
With `N=C(N)c1ccc(N)cc1` [4-Aminobenzamidine dihydrochloride] the cFRET/donor change was 0.576.
`Cc1[nH]c(=O)c(C#N)cc1-c1ccc2nccn2c1` [Olprinone hydrochloride] gave a cFRET/donor change of 0.211.
`NC(=O)c1cnccn1` [Pyrazinecarboxamide] showed a cFRET/donor change of 0.098.
Work on `CCC(=O)c1ccc2c(c1)N(CCCN(C)C)c1ccccc1S2` [Propionylpromazine hydrochloride] yielded a cFRET/donor change of 0.226.
`O=C(CCNNC(=O)c1ccncc1)NCc1ccccc1` [Nialamide] showed a cFRET/donor change of 0.468.
`N/C(=N\C(=O)c1nc(Cl)c(N)nc1N)NCc1ccccc1` [Benzamil hydrochloride] was tested, and the cFRET/donor change was 0.224.
With `CCCn1c(=O)c2[nH]c(C3CCCC3)nc2n(CCC)c1=O` [8-Cyclopentyl-1,3-dipropylxanthine] the cFRET/donor change was -0.105.
Work on `Cc1cc2c(s1)Nc1ccccc1N=C2N1CCN(C)CC1` [Olanzapine] yielded a cFRET/donor change of 0.385.
`NC(=O)CC[C@H](N)C(=O)O` [L-Glutamine] was tested, and the cFRET/donor change was 0.414.
Compound `CCN(CC)CCOc1ccc(Nc2ncc3cc(-c4c(Cl)cccc4Cl)c(=O)n(C)c3n2)cc1` has a cFRET/donor change of -5.45.
`Nc1nc(OCC2CCCCC2)c2[nH]cnc2n1` showed a cFRET/donor change of 0.33.
With `CC(C)OC(=O)C(C)(C)Oc1ccc(C(=O)c2ccc(Cl)cc2)cc1` [Fenofibrate] the cFRET/donor change was 0.22.
`CC(C)(C)c1ccc(S(=O)(=O)/C=C/C#N)cc1` was tested, and the cFRET/donor change was -0.176.
Compound `O=Nc1ccc2oc(=O)ccc2c1` [6-Nitroso-1,2-benzopyrone] has a cFRET/donor change of -1.07.
For `O=C(O)c1cc(=O)c2c(Cl)cc(Cl)cc2[nH]1` [5,7-Dichlorokynurenic acid], the cFRET/donor change was 0.316.
For `CCCCN(CCCC)CC(O)c1cc(Cl)cc2c1-c1ccc(Cl)cc1/C2=C/c1ccc(Cl)cc1` (stereo not given) [Lumefantrine], the cFRET/donor change was 0.354.
With `CN/C(=N\CCSCc1nc[nH]c1C)NC#N` [Cimetidine] the cFRET/donor change was 0.3.
With `c1ccc(C2CN3CCSC3=N2)cc1` (single isomer, unassigned; (-)) [(-)-Tetramisole hydrochloride] the cFRET/donor change was 0.472.
`c1ccc(C2CN3CCSC3=N2)cc1` (single isomer, unassigned; (-)) [Tetramisole hydrochloride] showed a cFRET/donor change of 0.0938.
With `O=C(O)c1cc2cc(Cc3cccnc3)ccc2o1` [Furegrelate sodium] the cFRET/donor change was 0.44.
For `CCOC(=O)c1cnc2c(cnn2CC)c1NN=C(C)C` [Etazolate hydrochloride], the cFRET/donor change was 0.546.
In the case of `COc1cc2ncnc(Nc3cccc(Cl)c3)c2cc1OC` [Tyrphostin AG 1478], the cFRET/donor change is reported as 0.19.
`CC(C)(C)c1ccc(C(=O)CCCN2CCC(OC(c3ccccc3)c3ccccc3)CC2)cc1` [Ebastine] was tested, and the cFRET/donor change was 0.57.
`CCCCNc1cc(C(=O)O)cc(S(N)(=O)=O)c1Oc1ccccc1` [Bumetanide] showed a cFRET/donor change of -0.215.
With `Fc1ccc2[nH]c(CN3CCN(c4ccccn4)CC3)cc2c1` the cFRET/donor change was 0.168.
With `CCCCCCCCCC[Si](C)(C)CCC(=O)NC(Cc1ccc(C)cc1)c1ccccc1` (stereo not given) [Sandoz 58-035] the cFRET/donor change was 0.228.
For `CCCCS(=N)(=O)CCC(N)C(=O)O` (racemic) [DL-Buthionine-[S,R]-sulfoximine], the cFRET/donor change was -0.0991.
`NC(=O)OCC(COC(N)=O)c1ccccc1` [Felbamate] gave a cFRET/donor change of 0.334.
In the case of `COCc1nc2c([nH]1)c(=O)n(C)c(=O)n2CC(C)C` [8-Methoxymethyl-3-isobutyl-1-methylxanthine], the cFRET/donor change is reported as 0.383.
With `O=c1cc(-c2ccccc2)[nH]c2nc(Cl)ccc12` [7-Chloro-4-hydroxy-2-phenyl-1,8-naphthyridine] the cFRET/donor change was -1.98.
`CC(=O)N[C@@H](CS)C(=O)O` [N-Acetyl-L-Cysteine] gave a cFRET/donor change of -0.204.
`N[C@@H](CCCC(=O)O)C(=O)O` [L-2-aminoadipic acid] showed a cFRET/donor change of -0.139.
`O=c1[nH]c2cc(C(F)(F)F)ccc2n1-c1cc(C(F)(F)F)ccc1O` showed a cFRET/donor change of 0.0362.
Work on `NC1CCN(O)C1=O` (racemic) yielded a cFRET/donor change of 0.00776.
For `Cn1ccnc1` [1-Methylimidazole], the cFRET/donor change was -0.165.
For `CCN(CC)CCOC(=O)c1ccc(N)cc1` [Procaine hydrochloride], the cFRET/donor change was 0.168.
In the case of `C[C@]12C=CC(=O)C=C1CC[C@H]1[C@@H]3C[C@@H](O)[C@](O)(C(=O)CO)[C@@]3(C)C[C@H](O)[C@@]12F` [Triamcinolone], the cFRET/donor change is reported as 0.219.
